Experimental data from PubChem BioAssay AID2685 (National Center for Advancing Translational Sciences (NCATS), 2010).
Some of the results follow. These are further read-outs of the screen, such as a control signal, another cell line or another target. No call is given for them. The list favours compounds with an active or inconclusive main result. Potencies come from curve fits of mixed quality, noted in brackets.

Assay: qHTS Assay for Lipid Storage Modulators in Drosophila S3 Cells;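 on cell number change: cells counted by Cell Tracker Red CMTPX staining in the red channel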
Details: BODIPY lipid droplet fluorescence, 18-24 h; for cell number change: measured here: cell count max response, cells fed with added oleic acid
In short: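 Drosophila S3 cells loaded with oleic acid (400 uM, as added) and compounds at several concentrations; lipid droplets imaged by 488-nm laser-scanning cytometry, 500–530 nm intensity and object ratio to cell channel. Percent activity normalized to 20 uM Triacsin C.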

[1] = measured here: cell number channel AC50, cells fed with added oleic acid
[2] = measured here: lipid fluorescence (Fed channel) AC50, cells fed with added oleic acid

| Structure (SMILES) | cell number change [%] | AC50 [1] | AC50 [2] |
| --- | --- | --- | --- |
| Cc1ccc(O)c(Sc2cc(C)ccc2O)c1 | -90.5 | 16400 nM [falling, partial curve] |  |
| CCN(Cc1cc(=O)[nH]c2ccccc12)C(=O)c1ccc(C)cc1 | 2.13 |  |  |
| C=CCOc1cccc(C2/C(=C(\O)c3ccc(F)cc3)C(=O)C(=O)N2CCN(C)C)c1 (stereo not drawn) | -17.8 | 1300 nM [falling, full curve, poor fit] | 731 nM [falling, full curve] |
| CCn1nc(C)c(CN2CCN(Cc3ccsc3)C(CCO)C2)c1C (stereo not drawn) | 11.7 |  | 920 nM [rising, full curve] |
| CCN(CC(=O)Nc1ccc(Cl)c(S(=O)(=O)N(C)C)c1)Cc1nc2ccccc2c(=O)[nH]1 | 31.1 | 8200 nM [rising, partial curve, poor fit] |  |
| O=C(c1c(Cl)nc2sccn12)N1CCN(c2cccc(Cl)c2)CC1 | -29.6 |  | 92 nM [rising, full curve, poor fit] |
| O=C(c1ccco1)N1CCN(c2cccc(Cl)c2)CC1 | 126 | 18400 nM [rising, partial curve] | 16400 nM [rising, partial curve] |
| C(=N\Nc1ncnc2nc[nH]c12)/c1cccs1 | 21.6 |  |  |
| COc1ccc(F)cc1Cn1nc(C(=O)O)c2ccccc2c1=O | 11.2 |  |  |
| O=C(Nc1ccc(F)cc1)C(=O)C1C(=O)Nc2ccccc21 (stereo not drawn) | -17 |  | 366 nM [falling, partial curve, poor fit] |
| COc1cnn(-c2ccc(F)cc2)c(=O)c1Br | -48.3 | 1030 nM [falling, full curve, poor fit] | 731 nM [falling, full curve] |
| Cc1cc(-c2nc3ccccc3c(=O)o2)ccc1[N+](=O)[O-] | -1.92 |  | 1030 nM [falling, full curve, poor fit] |
| Cc1ccc2c(CC(=O)NCC3(N4CCOCC4)CCCCC3)coc2c1C | -12.9 |  |  |
| Cc1ccc(CC(=O)N(Cc2ccccc2)c2ccccn2)cc1 | -11.8 | 2590 nM [rising, partial curve] |  |
| COc1ccc(NC(=O)Cn2nnc(C(=O)NCc3cccs3)c2N)cc1Cl | 50.7 | 20600 nM [rising, partial curve, poor fit] | 29100 nM [rising, partial curve, poor fit] |
| COC(=O)c1ccc(Cl)c(NC(=O)CSc2nnc(-c3ccncc3)o2)c1 | -11.3 |  |  |
| CCNC(=O)c1ccc(NC(=O)CC2SC(N3CCCCC3)=NC2=O)cc1 (stereo not drawn) | 1.65 |  | 1300 nM [rising, partial curve] |

Whole records from above:
C(=N\Nc1ncnc2nc[nH]c12)/c1cccs1 as listed: cell number change [%]: 21.6
CCN(CC(=O)Nc1ccc(Cl)c(S(=O)(=O)N(C)C)c1)Cc1nc2ccccc2c(=O)[nH]1 as listed: cell number change [%]: 31.1; AC50 [1]: 8200 nM [rising, partial curve, poor fit]
